Measured values from patent US12295992B2, “Use of ALDH1A and agonist, catalyst and inhibitor thereof” (SHANGHAI INSTITUTES FOR BIOLOGICAL SCIENCES, CHINESE …, priority 2017, dated 2025).
At least one compound was matched to its structure with a doubt left.

Tested on: wild-type C57BL/6 mice
Experiment: Three-chamber social experiment in wild-type mice
Format: in vivo
Method: Four-week-aged mice were given a low dose (0.1 mg/g) or a high dose (0.3 mg/g) of DSF (Sigma, dissolved in olive oil) every two days for 6 weeks. The control group was only given the solvent olive oil (Aladdin). The body weight of the mice was weighed weekly. After 6 weeks of gastric administration, the test of mouse behavior was started. The brains of the control and DSF mice were dissected and taken. After freezing with liquid nitrogen, the brain tissue was homogenized, and ATRA was quantified by the HPLC-MS/MS method as described hereinafter. A three-chamber social experiment was performed according to previously reported procedures (Sztainberg et al., 2015). Briefly, a transparent acrylic box for social experiment was divided into three chambers of uniform size with removable gates mounted on the partition board. An inverted iron mesh cup was placed in each of the left and right chambers. Two days before the experiment, C57BL/6 mice, which were from different family and whose age was matched with the test mice, were placed in two cups as strange mice for 1 hour each day for accommodation. Test mice were randomized into groups and accommodated to the test chamber for 1 hour before the test started. Each test mouse was placed in the center chamber for 10 minutes for self-exploration, and the chamber door was closed. In the first stage, a strange mouse was randomly placed in the left or right cup (avoiding positional bias), and the inanimate article was placed in the cup on the other side. […] In the second stage, the test mice were kept in the chamber of the strange mouse for 5 minutes, and then another strange mouse was placed in the cup in which the article was previously placed.

## CCN(CC)C(=S)SSC(=S)N(CC)CC [DSF, disulfiram]
DSF 0.1 mg/g
  time interacting with social mice vs non-social subjects: no such obvious trend
DSF 0.3 mg/g
  time interacting with social mouse vs non-social articles: no difference
DSF-administered mice
  communication time with familiar mice vs unfamiliar mice: completely indistinguishable
